In PMC11420629 (2024):

Target: GluR1 carboxy‐terminal region (SPR)
Test: SPR; full-length CIRP protein and the GluR1 carboxy-terminal region; who was immobilised and the conditions not given; both purified

B1: full‐length CIRP protein (SPR) (natural protein)
chain: MASDEGKLFVGGLSFDTNEQALEQVFSKYGQISEVVVVKDRETQRSRGFGFVTFENIDDAKDAMMAMNGKSVDGRQIRVDQAGKSSDNRSRGYRGGSAGGRGFFRGGRSRGRGFSRGGGDRGYGGGRFESRSGGYGGSRDYYASRSQGGSYGYRSSGGSYRDSYDSYATHNE
- binding: binds

Results are given in words; binding and its absence hold for the method and conditions named. A result given as binding can be weak or reduced; the word gives no strength.
